Reference: paper PMC5481773, “Structural insights into the function of ZRANB3 in replication stress response” (Nature Communications, 2017)
These are yes or no findings as the source states them, for the method shown. Some binding calls cover weakened binding; strength is not graded here.

Amino acid sequences for entries named in this document (tags omitted).
UniProt P12004: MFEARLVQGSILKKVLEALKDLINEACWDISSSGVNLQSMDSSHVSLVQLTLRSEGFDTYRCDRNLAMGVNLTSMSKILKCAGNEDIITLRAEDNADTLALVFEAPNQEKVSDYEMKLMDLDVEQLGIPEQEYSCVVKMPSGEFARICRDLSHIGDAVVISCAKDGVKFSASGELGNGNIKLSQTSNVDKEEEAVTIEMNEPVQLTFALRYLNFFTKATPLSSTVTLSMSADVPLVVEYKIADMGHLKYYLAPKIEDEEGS

Biological target: Proliferating Cell Nuclear Antigen (PCNA), untagged (human) (UniProt P12004)
Experiment: crystal structure; co-crystals of PCNA and the PIP peptide 511-532; conditions not stated; both purified

## FTHFEKEKQHDIRSFFVPQPKK [ZRANB3 PIP box peptide 511-532]
  binding: binds
